The other results are listed elsewhere or left out. Further columns of the screen follow, without active or inactive calls. Most of these compounds were active or inconclusive in the main read-out, so they are no random draw. The note in brackets gives the kind of curve behind each potency; many fits are weak.
Test: qHTS Assay for Lipid Storage Modulators in Drosophila S3 Cells;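 as to cell number change: cells counted by Cell Tracker Red CMTPX staining in the red channel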
Settings: BODIPY lipid droplet fluorescence, 18-24 h; for cell number change: measured here: cell count max response, cells fed with added oleic acid
In short: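 Laser-scanning cytometry quantifies lipid droplet accumulation (500–530 nm total intensity; droplet/cell object ratio) in oleic acid-fed (400 uM added) Drosophila S3 cells treated with a concentration series. 20 uM Triacsin C defined 100% inhibition.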

[1] = measured here: lipid fluorescence (Fed channel) AC50, cells fed with added oleic acid
[2] = measured here: cell number channel AC50, cells fed with added oleic acid

## Cc1c(C(=O)Nc2cccnc2Cl)oc2ccccc12
  cell number change: -23.8%
[1]
  AC50: 0.82 µM [falling, full curve]

## COc1cc(/C=C(/C#N)c2nc3ccccc3[nH]2)ccc1Oc1ncccc1[N+](=O)[O-]
  cell number change: -10.3%
[1]
  AC50: 32.6 µM [falling, partial curve, poor fit]

## O=C(NCc1cccnc1)c1cccc(NS(=O)(=O)c2ccc(Br)cc2)c1
  cell number change: 85.5%
[2]
  AC50: 7.31 µM [rising, partial curve]

## Cc1ccccc1-c1nnc2s/c(=C\c3ccc(N(C)C)cc3)c(=O)n12
  cell number change: 25.2%
[2]
  AC50: 2.31 µM [rising, full curve, poor fit]

## O=C(CSCC(=O)N1CCOCC1)Nc1nc(-c2ccccc2)cs1
  cell number change: -26.5%
[1]
  AC50: 29.1 µM [falling, single point]

## C[C@@]12CCC=C[C@H]1[C@H](c1ccc3ccccc3c1)N(Cc1ccccc1)C2=O
  cell number change: -8.58%

## Cc1cccc(NC(=O)c2ccc([N+](=O)[O-])s2)n1
  cell number change: -42.2%
[2]
  AC50: 14.6 µM [falling, single point]
[1]
  AC50: 13 µM [falling, partial curve]

## O=C1C(=O)N(CC(=O)N2CCCC2)c2ccccc21
  cell number change: -32.5%
[1]
  AC50: 32.6 µM [falling, partial curve, poor fit]

## CNC(=S)N(Cc1ccc2c(c1)OCO2)C1CC(=O)N(c2ccc(F)cc2)C1=O (stereo not given)
  cell number change: 144%
[2]
  AC50: 10.3 µM [rising, partial curve]
[1]
  AC50: 2.31 µM [rising, partial curve]

## CC(NC(=O)C1CCN(C(=O)[C@@H]2Cc3ccccc3CN2C(=O)OC(C)(C)C)CC1)c1ccccc1 (stereo not given in full)
  cell number change: -11.6%
[1]
  AC50: 20.6 µM [falling, single point]

## Oc1ccc(-c2nc(-c3ccc(O)c(O)c3)cs2)cc1
[1]
  AC50: 2.31 µM [falling, full curve]

## CC(=O)c1ccc(OC(=O)c2ccc(-n3nc(C)cc3C)cc2)cc1
  cell number change: -25.7%
[2]
  AC50: 3.26 µM [rising, single point]
[1]
  AC50: 23.1 µM [rising, single point]

## COc1ccc(-c2noc(CCC(=O)NCCN3CCN(c4ccccc4F)CC3)n2)cc1
  cell number change: 3.38%
[2]
  AC50: 0.13 µM [rising, full curve, poor fit]
[1]
  AC50: 6.51 µM [rising, partial curve]

## O=C(Nc1ccc(Oc2ccccc2)nc1)C1CCCCN1Cc1ccco1 (stereo not given)
  cell number change: -42.8%
[2]
  AC50: 13 µM [falling, single point]
[1]
  AC50: 2.06 µM [falling, full curve, poor fit]

## COc1ccc(C(=O)C[n+]2ccccc2C)cc1
  cell number change: 17.1%
[2]
  AC50: 0.731 µM [falling, single point]
[1]
  AC50: 4.11 µM [rising, full curve]

## CCCOC(=O)c1c(-c2ccc(C)cc2C)csc1NC(=O)C1C2CCC(O2)C1C(=O)O (stereo not given)
  cell number change: -62.2%
[2]
  AC50: 36.6 µM [falling, partial curve]
[1]
  AC50: 13 µM [falling, partial curve]

## CN(C(=O)c1nn(C)c2c1CS(=O)(=O)c1ccccc1-2)c1cccc(Cl)c1
[1]
  AC50: 29.1 µM [rising, single point]

## Cn1c2c(c(=O)n(C)c1=O)C(c1ccccc1Cl)C(C#N)=C(N)O2 (stereo not given)
[1]
  AC50: 29.1 µM [falling, single point]

## CC(=O)Oc1ccc(/C=N/NC(=S)Nc2ccccc2)cc1
  cell number change: -15.2%
[1]
  AC50: 23.1 µM [rising, single point]

## CC(Sc1nnc2n1CCCCC2)C(=O)Nc1cccc(S(=O)(=O)N2CCOCC2)c1 (stereo not given)
  cell number change: 3.9%

## COc1cccc(COc2nc3c(c(=O)n(C)c(=O)n3C)n2C)c1
[2]
  AC50: 3.26 µM [rising, single point]
[1]
  AC50: 0.58 µM [rising, single point]

## CCn1c(CCNC(=O)c2ccc(OC)cc2)nnc1SCC(=O)Nc1ccccc1F
  cell number change: -19.8%
[1]
  AC50: 7.08 µM [falling, partial curve]

## CC(C)(C)n1cnc2cc(NCc3ccc(Br)cc3)ccc21
  cell number change: 9.93%
[2]
  AC50: 2.31 µM [rising, partial curve, poor fit]

## Cc1c(C(C)NC(=O)c2cc(COc3cccc4cnccc34)on2)cnn1C (stereo not given)
  cell number change: -32%
[2]
  AC50: 29.1 µM [falling, single point]
[1]
  AC50: 16.4 µM [falling, partial curve]

## COc1ccc(-c2noc(C3CCCN(C(=O)c4ccc(F)cc4)C3)n2)cc1 (stereo not given)
  cell number change: 11.1%

## COC(=O)C1=C(N)OC2=C(C(=O)CC(C)(C)C2)C1c1ccoc1 (stereo not given)
  cell number change: -0.219%
[1]
  AC50: 0.461 µM [falling, full curve, poor fit]

## CCOc1ccccc1NC(=O)Cn1nnc(C(=O)NCc2ccc3c(c2)OCO3)c1N
  cell number change: 24.2%

## Cc1cc(C)n2nc(SCC(=O)N(CCC#N)c3ccccc3F)nc2n1
  cell number change: -49.4%
[2]
  AC50: 5.8 µM [falling, partial curve, poor fit]
[1]
  AC50: 6.51 µM [falling, partial curve, poor fit]

## O=C(NC(=S)Nc1cccc(-c2ccc(CO)o2)c1)c1cccs1
  cell number change: -5.15%

## COc1ccc(C(=O)N2CCCC2)cc1S(=O)(=O)N1CCOCC1
[1]
  AC50: 4.61 µM [falling, single point]

## CCCCOC(=O)c1ccc(NC(=S)NC(=O)c2c(Cl)cnn2CC)cc1
  cell number change: -5.5%

## COc1ccc(-c2cc3nc(C)n(N)c(=O)c3s2)cc1
  cell number change: 12.4%
[2]
  AC50: 2.31 µM [rising, single point]
[1]
  AC50: 6.51 µM [rising, single point]

## CCOc1cc(/C=C/c2nc3ccccc3s2)ccc1OCC(=O)N1CCOCC1
  cell number change: 7.57%
[2]
  AC50: 6.51 µM [falling, single point]

## Cc1oc(C)c(C(=O)O)c1COc1ccc(C(=O)O)cc1
  cell number change: 105%
[2]
  AC50: 29.1 µM [rising, single point]

## COc1cc(C(=O)NC2CCCC(C)C2C)ccc1OCC(=O)N1CCOCC1 (stereo not given)
  cell number change: 8.55%
[1]
  AC50: 3.26 µM [rising, single point]

## O=C(c1ccc(Cl)cc1)C(Cn1cncn1)C(Sc1ccccc1)c1ccccc1 (stereo not given)
  cell number change: 4.25%
[2]
  AC50: 1.16 µM [rising, full curve]

## COc1ccc(-n2cnc3scc(-c4ccc(OC)c(OC)c4)c3c2=O)cc1
  cell number change: -18.5%
[1]
  AC50: 5.17 µM [falling, full curve]

## N#CNC(=Nc1ccc(Cl)cc1)Oc1ccccc1
  cell number change: 4.35%
[2]
  AC50: 0.0058 µM [falling, full curve, poor fit]
[1]
  AC50: 29.1 µM [falling, partial curve, poor fit]

## COc1[nH]c(/N=C/c2ccccc2)c(C#N)c1C#N
  cell number change: -104%
[2]
  AC50: 20.6 µM [falling, single point]
[1]
  AC50: 23.1 µM [falling, partial curve]

## Cc1ccc2nc3n(c(=O)c2c1)-c1ccccc1C(=O)NC3Cc1ccccc1 (stereo not given)
  cell number change: -40.9%
[2]
  AC50: 1.64 µM [falling, partial curve]
[1]
  AC50: 0.0146 µM [rising, full curve]

## Cc1cccc(N2CCN(C(=S)c3ccc(-c4ccccc4[N+](=O)[O-])o3)CC2)c1
[2]
  AC50: 1.46 µM [falling, partial curve]
[1]
  AC50: 23.1 µM [rising, partial curve]

## Cc1cccc(NC(=O)c2cc(-c3cc(C)ccc3O)n[nH]2)c1
  cell number change: -19.9%
[1]
  AC50: 7.31 µM [falling, partial curve]

## Cc1noc(C)c1C(=O)N1CCCC(Nc2ccc(C(C)C)cc2)C1 (stereo not given)
  cell number change: 9.39%
[1]
  AC50: 6.51 µM [rising, full curve, poor fit]

## CCOC(=O)C(C)On1c(-c2ccc(Cl)cc2)nc2ccc([N+](=O)[O-])cc21 (stereo not given)
  cell number change: -16.1%
[2]
  AC50: 0.0291 µM [rising, full curve, poor fit]
[1]
  AC50: 1.84 µM [rising, partial curve, poor fit]

## Cc1oc2c(c1C(=O)c1ccccc1)C(=O)C(=O)c1ccccc1-2
  cell number change: -78.5%
[1]
  AC50: 29.1 µM [falling, single point]

## COc1cccc(OCc2cc(C(=O)N(C)CCOc3ccc(C)cc3)no2)c1
[2]
  AC50: 1.84 µM [falling, partial curve]

## O=C(COc1ccccc1[N+](=O)[O-])Nc1cccc(C(=O)Nc2ccccc2C(=O)O)c1
  cell number change: 22.2%

## CC1CC(N(C(=O)c2ccco2)c2ccccc2)c2ccccc2N1C(=O)c1ccco1 (stereo not given)
  cell number change: 10.7%
[1]
  AC50: 0.58 µM [rising, single point]

## COC(=O)c1cc(Br)c(=O)n(-c2ccccn2)c1
  cell number change: -33.6%
[2]
  AC50: 3.26 µM [falling, full curve, poor fit]

## O=C(NCc1ccccc1Cl)C1=CC=CN2CCS(=O)(=O)N=C12
  cell number change: -0.648%
[1]
  AC50: 3.26 µM [rising, partial curve, poor fit]

## Cc1ccc(S(=O)(=O)N2CCOCC2)cc1C(=O)OCC(=O)NC1CC1
  cell number change: 1.3%
[1]
  AC50: 0.92 µM [falling, full curve]

## CCCN(CCC)S(=O)(=O)c1cccc(C(=O)Nc2ccc3c(c2)OCO3)c1
  cell number change: -38.3%
[2]
  AC50: 29.1 µM [falling, single point]
[1]
  AC50: 29.1 µM [falling, single point]

## Cc1ccc2cc(NC(=O)c3ccccc3)ccc2n1
  cell number change: 20.7%
[2]
  AC50: 0.259 µM [rising, full curve, poor fit]
[1]
  AC50: 0.0146 µM [rising, full curve, poor fit]

## CCn1nc2cc(C(=O)NCc3cc(C(F)(F)F)cc(C(F)(F)F)c3)ccc2c1OC
  cell number change: 2.28%

## O=c1c2cnn(-c3ccccc3)c2ncn1Cc1ccco1
[1]
  AC50: 0.58 µM [falling, single point]

## N#CC1=C(N)N2C(=C(C#N)C13CCN(Cc1ccccc1)CC3)Nc1ccccc12
  cell number change: 121%
[2]
  AC50: 23.1 µM [rising, single point]
[1]
  AC50: 2.06 µM [rising, partial curve]

Reference: PubChem BioAssay AID2685 (National Center for Advancing Translational Sciences (NCATS), 2010)
